# Measurements published in the supplement of paper PMC3682954.
# Where a name gives a salt, the structure may show the parent alone. ± gives the standard deviation of the averaged measurements. Some of the results follow. Most values come without repeats; read them as rough.
# Tested on: RAW 264.7
# Experiment: cell viability (MTT) relative to vehicle control; higher = more viable cells
# Details: stimulus: HMGB1 5 ug/ml, 18 h
# [1] = compound concentration: 1 ug/ml
SMILES,cell viability (compound concentration: 3 uM),cell viability [1]
NC(Cn1ccc(=O)c(O)c1)C(=O)O (stereo not drawn),96.2%,–
CNCCc1cnc(CCC(c2ccccc2)c2ccccc2)[nH]1 [N-Methylhistaprodifen dioxalate salt],100%,–
COC(=O)Nc1nc2cc(Sc3ccccc3)ccc2[nH]1 [Fenbendazole],55 ± 10%,–
COC(=O)Nc1nc2cc(Sc3ccccc3)ccc2[nH]1,62.1%,–
"COc1ccccc1-c1cc(=O)c2c(OC)cccc2o1 [2',5-Dimethoxyflavone]",–,98.7%
CC(=O)N(CC(O)CO)c1c(I)c(C(=O)NCC(O)CO)c(I)c(C(=O)NCC(O)CO)c1I (stereo not drawn) [Iohexol],87.1%,–
CN(CCCCCCCCCCN(C)C(=O)Oc1cccc([N+](C)(C)C)c1)C(=O)Oc1cccc([N+](C)(C)C)c1 [Demecarium bromide],112%,–
CN1CCN(CC(=O)N2c3ccccc3C(=O)Nc3cccnc32)CC1,113%,–
CN1CCN(CC(=O)N2c3ccccc3C(=O)Nc3cccnc32)CC1 [Pirenzepine],103%,–
CN1CCN(CC(=O)N2c3ccccc3C(=O)Nc3cccnc32)CC1 [Pirenzepine dihydrochloride],99.2 ± 11%,–
C=C1C(=O)O[C@@H]2C[C@@]3(C)CCCC(=C)[C@@H]3C[C@H]12 [Isoalantolactone],–,101%
O=C1c2c(O)cc(O)cc2O[C@H](c2ccc(O)c(O)c2)[C@H]1O (racemic) [(±)-Taxifolin],110%,–
Cn1c(=O)c2c(ncn2CC2OCCO2)n(C)c1=O [Doxofylline],99.9 ± 1.5%,–
CC1(C)O[C@@H]2[C@@H](CO[C@@]3(COS(N)(=O)=O)OC(C)(C)O[C@@H]23)O1,101 ± 9.4%,–
CC1(C)O[C@@H]2[C@@H](CO[C@@]3(COS(N)(=O)=O)OC(C)(C)O[C@@H]23)O1 [Topiramate],96.3%,–
COc1cc2ccc(=O)oc2cc1O [Scopoletin],–,87.9%
CC[N+](CC)(CC(=O)Nc1c(C)cccc1C)Cc1ccccc1 [Denatonium benzoate],70.7%,–
CC[N+](CC)(CC(=O)Nc1c(C)cccc1C)Cc1ccccc1,96.6%,–
C=N[C@@H](C(=O)N[C@@H]1C(=O)N2[C@@H]1SC(C)(C)[C@@H]2C(=O)O)c1ccccc1 [Metampicillin sodium salt],120%,–
COc1cc(NS(=O)(=O)c2ccc(N)cc2)nc(OC)n1 [Sulfadimethoxine],101 ± 6%,–
COc1cc(NS(=O)(=O)c2ccc(N)cc2)nc(OC)n1,113%,–

SMILES,cell viability (compound concentration: 3 uM),cell viability [1]
O=C1N=C(O)NC1(c1ccccc1)c1ccccc1 [Phenytoin sodium],107%,–
O=C1N=C(O)NC1(c1ccccc1)c1ccccc1,108%,–
O=C1Nc2ccc(I)cc2/C1=C/c1cc(Br)c(O)c(Br)c1,106%,–
COC(=O)C1OC(Oc2cc(O)c3c(c2)O[C@H](c2ccccc2O)CC3=O)C(O)C(O)C1O (stereo partly drawn),–,105%
O=C(O)CCCC[C@@H]1CCSS1,113%,–
Cc1cccc(Nc2ccncc2S(=O)(=O)NC(=O)NC(C)C)c1 [Torsemide],92.5%,–
Cc1cccc(Nc2ccncc2S(=O)(=O)NC(=O)NC(C)C)c1,92.1%,–
COc1cc2c(cc1OC)-c1c/c(=N\c3c(C)cc(C)cc3C)n(C)c(=O)n1CC2 [Trequinsin HCl],105%,–
COc1cc2c(cc1OC)-c1c/c(=N\c3c(C)cc(C)cc3C)n(C)c(=O)n1CC2 [Trequinsin hydrochloride],109%,–
"O=C(C=Cc1ccc(O)cc1)c1ccccc1O [2',4-Dihydroxychalcone]",–,104%
NC1=NCC2c3ccccc3Cc3ccccc3N12 (stereo not drawn) [Epinastine hydrochloride],108%,–
NC(=O)N1c2ccccc2CC(=O)c2ccccc21,104%,–
NC(=O)N1c2ccccc2CC(=O)c2ccccc21 [Oxcarbazepine],102 ± 15%,–
NC(=O)N1c2ccccc2CC(=O)c2ccccc21 [Trileptal],97.8%,–
CC(=O)OCC(=O)[C@@]1(O)[C@H](OC(C)=O)C[C@H]2[C@@H]3CCC4=CC(=O)C=C[C@]4(C)[C@@]3(F)[C@@H](O)C[C@@]21C,115%,–
CC(C)Cn1cnc2c(N)nc3ccccc3c21 [Imiquimod],95.9 ± 17%,–
CC(C)NC(=N)NC(=N)Nc1ccc(Cl)cc1 [Proguanil hydrochloride],82.5%,–
CC(C)NC(=N)NC(=N)Nc1ccc(Cl)cc1,108%,–
CN(C)CC[C@@H](c1ccc(Br)cc1)c1ccccn1,100%,–
O=C1OC(=O)[C@H]2[C@@H]1[C@@H]1CC[C@H]2O1,129%,–
O=C1OC(=O)[C@H]2[C@@H]1[C@@H]1CC[C@H]2O1 [Norcantharidin],108%,88.5%

SMILES,cell viability (compound concentration: 3 uM),cell viability [1]
O=c1[nH]c(=O)n([C@H]2C[C@H](O)[C@@H](CO)O2)cc1C(F)(F)F [Trifluridine],95.2%,–
O=c1[nH]c(=O)n([C@H]2C[C@H](O)[C@@H](CO)O2)cc1C(F)(F)F,103%,–
O=c1[nH]c(=O)n([C@H]2C[C@H](O)[C@@H](CO)O2)cc1C(F)(F)F [Trifluorothymidine],–,90.7%
Nc1nc2c(ncn2[C@@H]2O[C@H](CO)[C@@H](O)[C@@H]2O)c(=O)[nH]1 [Ara-G hydrate],111%,–
Cc1nnc(SCC2=C(C(=O)O)N3C(=O)[C@@H](NC(=O)Cn4cnnn4)[C@H]3SC2)s1,106%,–
Cc1nnc(SCC2=C(C(=O)O)N3C(=O)[C@@H](NC(=O)Cn4cnnn4)[C@H]3SC2)s1 [Cefazolin sodium salt],130%,–
Cc1nnc(SCC2=C(C(=O)O)N3C(=O)[C@@H](NC(=O)Cn4cnnn4)[C@H]3SC2)s1 [Cefazolin sodium],105%,–
CC1(C)S[C@@H]2[C@H](NC(=O)COc3ccccc3)C(=O)N2[C@H]1C(=O)O,109%,–
CCCC(=O)O[C@]1(C(=O)CO)CC[C@H]2[C@@H]3CCC4=CC(=O)CC[C@]4(C)[C@H]3[C@@H](O)C[C@@]21C,111%,–
CCCC(=O)O[C@]1(C(=O)CO)CC[C@H]2[C@@H]3CCC4=CC(=O)CC[C@]4(C)[C@H]3[C@@H](O)C[C@@]21C [Hydrocortisone 17-butyrate],–,113%
C[S+](CC[C@H](N)C(=O)I)C[C@H]1O[C@@H](n2cnc3c(N)ncnc32)[C@H](O)[C@@H]1O (stereo partly drawn) [S-(5'-Adenosyl)-L-methionine iodide],–,92.7%
CCCCC1(C2CCCC2)Cc2cc(OCC(=O)O)c(Cl)c(Cl)c2C1=O (stereo in doubt) [R(+)-Butylindazone],95.6%,–
COc1ccc2c3c1O[C@H]1C[C@@H](O)C=C[C@@]31CCN(C)C2 [(-)Galanthamine],–,85.2%
COc1ccc2c3c1O[C@H]1C[C@@H](O)C=C[C@@]31CCN(C)C2,102%,–
COc1ccc2c3c1O[C@H]1C[C@@H](O)C=C[C@@]31CCN(C)C2 [Galanthamine hydrobromide],109%,–
COc1ccc2c3c1O[C@H]1C[C@@H](O)C=C[C@@]31CCN(C)C2 [Galanthamine],90.9 ± 6.1%,–
COc1cc2c(cc1OC)[C@@H]1C(=O)c3ccc4c(c3O[C@@H]1CO2)C=CC(C)(C)O4,82.4%,–
S=c1[nH]cnc2nc[nH]c12,95.3 ± 1.5%,–
S=c1[nH]cnc2nc[nH]c12 [Mercaptopurine],112%,–
Cc1cc2nc3c(=O)[nH]c(=O)nc-3n(C[C@H](O)[C@H](O)[C@H](O)COP(=O)(O)OP(=O)(O)OC[C@H]3O[C@@H](n4cnc5c(N)ncnc54)[C@H](O)[C@@H]3O)c2cc1C [Flavin adenine dinucleotide disodium salt],–,107%
C[C@H]1O[C@@H](O[C@H]2[C@@H](O)C[C@H](O[C@H]3[C@@H](O)C[C@H](O[C@H]4CC[C@@]5(C)[C@H](CC[C@@H]6[C@@H]5CC[C@]5(C)[C@@H](C7=CC(=O)OC7)CC[C@]65O)C4)O[C@@H]3C)O[C@@H]2C)C[C@H](O)[C@@H]1O,100%,–

# A stretch from the list above:
SMILES,cell viability (compound concentration: 3 uM),cell viability [1]
CCCC(=O)O[C@]1(C(=O)CO)CC[C@H]2[C@@H]3CCC4=CC(=O)CC[C@]4(C)[C@H]3[C@@H](O)C[C@@]21C [Hydrocortisone 17-butyrate],–,113%
C[S+](CC[C@H](N)C(=O)I)C[C@H]1O[C@@H](n2cnc3c(N)ncnc32)[C@H](O)[C@@H]1O (stereo partly drawn) [S-(5'-Adenosyl)-L-methionine iodide],–,92.7%
CCCCC1(C2CCCC2)Cc2cc(OCC(=O)O)c(Cl)c(Cl)c2C1=O (stereo in doubt) [R(+)-Butylindazone],95.6%,–
COc1ccc2c3c1O[C@H]1C[C@@H](O)C=C[C@@]31CCN(C)C2 [(-)Galanthamine],–,85.2%
COc1ccc2c3c1O[C@H]1C[C@@H](O)C=C[C@@]31CCN(C)C2,102%,–
COc1ccc2c3c1O[C@H]1C[C@@H](O)C=C[C@@]31CCN(C)C2 [Galanthamine hydrobromide],109%,–

# (listing goes on)

SMILES,cell viability (compound concentration: 3 uM),cell viability [1]
C[C@H]1O[C@@H](O[C@H]2[C@@H](O)C[C@H](O[C@H]3[C@@H](O)C[C@H](O[C@H]4CC[C@@]5(C)[C@H](CC[C@@H]6[C@@H]5CC[C@]5(C)[C@@H](C7=CC(=O)OC7)CC[C@]65O)C4)O[C@@H]3C)O[C@@H]2C)C[C@H](O)[C@@H]1O [Digitoxin],–,103%
CCCCCCCCNC(C)C(O)c1ccc(SC(C)C)cc1 (stereo not drawn),88.4%,–
CCCCCCCCNC(C)C(O)c1ccc(SC(C)C)cc1 (stereo not drawn) [Suloctidil],131%,–
CN(Cc1ccc(C(C)(C)C)cc1)Cc1cccc2ccccc12 [Butenafine],119 ± 4%,–
NCCCCN [Putrescine dihydrochloride],109%,–
C1CCN2CC3CC(CN4CCCC[C@H]34)C2C1 (stereo partly drawn),–,94.2%
O=C(CCCN1CCC(O)(c2ccc(Cl)cc2)CC1)c1ccc(F)cc1,89.9%,–
O=C(CCCN1CCC(O)(c2ccc(Cl)cc2)CC1)c1ccc(F)cc1 [Haloperidol],92.7 ± 3.5%,–
O=c1[nH]c2cc(Cl)ccc2c(O)c1-c1cccc(Oc2ccccc2)c1,97.5%,–
Cc1ccc(C)c(OCCCC(C)(C)C(=O)O)c1,106%,–
Cc1ccc(C)c(OCCCC(C)(C)C(=O)O)c1 [Gemfibrozil],95.2 ± 6.8%,–
O=C(O)C[C@H](O)C[C@H](O)/C=C/c1c(C2CC2)nc2ccccc2c1-c1ccc(F)cc1,105%,–
Cc1cc2c(OCC(CNC(C)(C)C)OC(=O)c3ccccc3)cccc2[nH]1 (stereo not drawn) [Bopindolol],91.6%,–
COc1ccc(CN(CCN(C)C)c2ncccn2)cc1,101%,–
"N=C(N)SCCc1ccc(CCSC(=N)N)cc1 [1,4-PBIT dihydrobromide]",108%,–
NCC(=O)CCC(=O)O,109%,–
CNCCC=C1c2ccccc2C=Cc2ccccc21 [Norcyclobenzaprine],89.8%,–
NC(=O)c1ccc[n+]([C@@H]2O[C@H](COP(=O)([O-])OP(=O)(O)OC[C@H]3O[C@@H](n4cnc5c(N)ncnc54)[C@H](O)[C@@H]3O)[C@@H](O)[C@H]2O)c1 [Nadide],134%,–
NC(=O)c1ccc[n+]([C@@H]2O[C@H](COP(=O)([O-])OP(=O)(O)OC[C@H]3O[C@@H](n4cnc5c(N)ncnc54)[C@H](O)[C@@H]3O)[C@@H](O)[C@H]2O)c1,104%,–
